This data set relates to heat-resistant proteins of human plasma. The experiment in a line: LC/MS of heat-resistant proteins in plasma after exposure to proteinase K and boiling. Conditions: LC/MS; healthy human blood plasma after incubation for 30 minutes with Proteinase K, following heating for 100° C. for 5 minutes (probe_2).
For the substance APOA_HUMAN, the “N-plasma + pK” value came out at 15.
In the case of APOB_HUMAN it was 100.
In the case of CO3_HUMAN [CO3_HUMAN [3]] it was 93.
FA9_HUMAN: the “N-plasma + pK” value is listed as 2.
For HV315_HUMAN, the “N-plasma + pK” value is listed as 1.
The same measure for HV315_HUMAN [HV315_HUMAN [3]]: 2.

The values above are taken from US12535491B2, “Vaccine comprising protein-targeted (PT) extracellular DNA isolated from bacterial matrix” (priority 2018, dated 2026).
